{"source": "patent US9422286B2", "about": "“Metal-binding bifunctional compounds as diagnostic agents for Alzheimer's disease” (Washington University, priority 2014, dated 2016)", "note": "Some of these results come from one statement about several compounds together."}
{"test_system": "Mouse neuroblastoma Neuro2A (N2A) cell lines", "test": "Alamar Blue assay, cell toxicity", "format": "cell-based", "details": "N2A cells, 40 h incubation"}
{"smiles": "COc1cc(-c2nc3ccccc3s2)cc(CN2Cc3cccc(n3)CN(Cc3cc(-c4nc5ccccc5s4)cc(OC)c3O)Cc3cccc(n3)C2)c1O", "note": "[L7]", "Cytotoxicity": "toxic only at micromolar concentrations"}
{"smiles": "COc1cc(-c2nc3ccccc3s2)cc(CN2Cc3cccc(n3)CN(CC(=O)O)Cc3cccc(n3)C2)c1O", "note": "[L6]", "Cytotoxicity": "toxic only at micromolar concentrations"}
{"smiles": "COc1cc(-c2nc3ccccc3s2)cc(CN2Cc3cccc(n3)CN(C)Cc3cccc(n3)C2)c1O", "note": "[L5]", "Cytotoxicity": "toxic only at micromolar concentrations"}
{"smiles": "COc1cc(-c2nc3ccccc3s2)cc(CN2Cc3cccc(n3)CNCc3cccc(n3)C2)c1O", "note": "[L4]", "Cytotoxicity": "toxic only at micromolar concentrations"}
{"smiles": "COc1cc(-c2nc3ccccc3s2)cc(CN2CCN(C)CCN(C)CC2)c1O", "note": "[L3]", "Cytotoxicity": "toxic only at micromolar concentrations"}
